The results in this text go back to article PMC6127343.

Chains of the proteins cited; added tags and fusions are not shown. Lines headed by an entry give the natural chain unless they say otherwise; changes in a name come on top. Residues count along the entry.
UniProt P02545, residues 1-646: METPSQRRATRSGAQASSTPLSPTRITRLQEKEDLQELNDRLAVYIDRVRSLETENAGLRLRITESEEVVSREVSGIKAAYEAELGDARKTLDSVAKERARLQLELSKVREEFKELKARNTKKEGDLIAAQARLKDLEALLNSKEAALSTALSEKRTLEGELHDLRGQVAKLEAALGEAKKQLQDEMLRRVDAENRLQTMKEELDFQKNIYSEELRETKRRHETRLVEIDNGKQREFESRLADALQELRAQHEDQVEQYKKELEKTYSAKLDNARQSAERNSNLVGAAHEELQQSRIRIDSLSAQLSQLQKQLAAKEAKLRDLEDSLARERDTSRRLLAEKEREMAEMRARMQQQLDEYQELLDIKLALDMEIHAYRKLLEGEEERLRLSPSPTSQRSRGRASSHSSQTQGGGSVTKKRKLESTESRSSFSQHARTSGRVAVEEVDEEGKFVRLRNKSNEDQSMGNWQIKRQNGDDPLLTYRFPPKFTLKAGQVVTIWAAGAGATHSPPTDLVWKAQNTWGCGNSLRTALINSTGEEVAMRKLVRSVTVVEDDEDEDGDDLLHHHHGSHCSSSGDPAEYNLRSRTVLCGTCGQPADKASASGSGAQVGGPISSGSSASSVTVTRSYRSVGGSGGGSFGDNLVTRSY
UniProt P48681: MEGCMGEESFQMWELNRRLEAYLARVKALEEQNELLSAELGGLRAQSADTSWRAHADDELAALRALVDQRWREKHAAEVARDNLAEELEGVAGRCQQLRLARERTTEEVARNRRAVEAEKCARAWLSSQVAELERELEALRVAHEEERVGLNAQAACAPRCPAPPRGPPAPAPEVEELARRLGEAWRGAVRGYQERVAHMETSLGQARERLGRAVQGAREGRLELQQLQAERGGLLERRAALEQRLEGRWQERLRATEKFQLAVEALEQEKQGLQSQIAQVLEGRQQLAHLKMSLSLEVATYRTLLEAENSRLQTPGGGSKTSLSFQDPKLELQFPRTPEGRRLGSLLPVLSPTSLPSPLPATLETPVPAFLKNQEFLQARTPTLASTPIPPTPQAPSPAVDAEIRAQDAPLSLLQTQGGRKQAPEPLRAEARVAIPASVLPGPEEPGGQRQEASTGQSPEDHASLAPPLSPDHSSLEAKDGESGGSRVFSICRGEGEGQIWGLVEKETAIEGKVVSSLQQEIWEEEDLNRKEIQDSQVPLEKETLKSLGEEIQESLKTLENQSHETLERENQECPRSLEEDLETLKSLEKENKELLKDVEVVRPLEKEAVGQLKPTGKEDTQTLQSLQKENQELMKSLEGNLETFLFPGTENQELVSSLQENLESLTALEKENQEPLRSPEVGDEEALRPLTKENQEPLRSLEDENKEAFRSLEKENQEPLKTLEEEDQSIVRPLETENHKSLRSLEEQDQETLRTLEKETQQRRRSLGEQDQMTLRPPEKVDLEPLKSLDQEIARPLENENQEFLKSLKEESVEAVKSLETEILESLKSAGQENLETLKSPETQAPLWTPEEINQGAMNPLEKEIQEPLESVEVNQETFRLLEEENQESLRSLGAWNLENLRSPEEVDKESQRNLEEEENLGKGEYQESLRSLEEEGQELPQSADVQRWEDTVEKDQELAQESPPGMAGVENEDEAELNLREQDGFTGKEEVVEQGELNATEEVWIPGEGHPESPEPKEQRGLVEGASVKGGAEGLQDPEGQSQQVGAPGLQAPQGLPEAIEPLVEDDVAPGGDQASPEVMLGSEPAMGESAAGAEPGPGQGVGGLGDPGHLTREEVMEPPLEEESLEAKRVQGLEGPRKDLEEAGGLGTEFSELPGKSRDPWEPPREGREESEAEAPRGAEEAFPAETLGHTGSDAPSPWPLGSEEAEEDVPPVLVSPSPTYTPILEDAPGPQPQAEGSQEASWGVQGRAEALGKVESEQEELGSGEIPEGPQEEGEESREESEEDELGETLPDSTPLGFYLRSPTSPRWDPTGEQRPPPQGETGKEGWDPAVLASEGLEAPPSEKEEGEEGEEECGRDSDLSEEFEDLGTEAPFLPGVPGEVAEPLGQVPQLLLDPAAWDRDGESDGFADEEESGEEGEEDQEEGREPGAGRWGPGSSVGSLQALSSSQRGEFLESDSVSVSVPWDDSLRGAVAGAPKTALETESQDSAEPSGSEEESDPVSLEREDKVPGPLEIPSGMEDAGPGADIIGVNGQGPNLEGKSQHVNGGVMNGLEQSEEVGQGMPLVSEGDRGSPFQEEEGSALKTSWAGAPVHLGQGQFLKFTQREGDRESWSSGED

Results are given in words; binding and its absence hold for the method and conditions named. In cells and extracts the contact can be indirect. A result given as binding can be weak or reduced; the word gives no strength.

The target of the assay is lamin A/C (human (endogenous in A549, H1299 and HEK293T)) (UniProt P02545). Briefly: co-IP; anti-lamin A/C immunoprecipitation of endogenous lamin A/C from HEK293T cells ectopically expressing Myc-Nestin constructs; Pierce IP lysis buffer, overnight at 4 °C, Dynabeads Protein G.

For the substance “Myc-Nestin C terminus of the rod domain (aa182-aa313) (from UniProt P48681) (domain or fragment)”, the binding result is listed as “binds”.
